# Primary screen of a compound library

Sequences of proteins named here, by UniProt entry; tags and fusion partners are left off.
UniProt P9WNZ1, whole entry: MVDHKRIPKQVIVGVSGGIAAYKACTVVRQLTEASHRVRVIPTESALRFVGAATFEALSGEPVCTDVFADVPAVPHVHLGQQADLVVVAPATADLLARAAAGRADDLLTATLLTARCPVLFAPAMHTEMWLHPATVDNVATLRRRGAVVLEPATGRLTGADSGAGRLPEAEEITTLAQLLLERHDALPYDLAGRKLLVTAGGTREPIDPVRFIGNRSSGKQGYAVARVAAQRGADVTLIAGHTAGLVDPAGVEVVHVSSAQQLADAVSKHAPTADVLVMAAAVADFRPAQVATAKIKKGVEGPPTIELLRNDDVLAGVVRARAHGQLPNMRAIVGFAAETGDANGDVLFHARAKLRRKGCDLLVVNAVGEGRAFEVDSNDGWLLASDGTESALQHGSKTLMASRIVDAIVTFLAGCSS

Measurements from “University of Dundee, Small-Polar-MMV Screening Library” (2021), ChEMBL document CHEMBL3988442.

The filed quantity is “Percent Effect” (%).
How 0% and 100% were set is not recorded. Most values in the screen are low, and negative values occur.
Compounds were drawn at random from those tested, without regard to their results.
Two or more numbers in one place are separate tests of the same structure; such repeats can differ widely.
A dash means the value is not listed here; it may have been measured.

A: 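Cell assay of Leishmania donovani living inside macrophages; the read-out is not stated. Tested at 30 µM. The record gives no direction; compounds that gave an IC50 in retests scored well above the rest, so higher reads as stronger inhibition. Of about 69,000 compounds tested this way, about 1,000 (1.5%) reached 50% or more in at least one test.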
B: 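Enzyme assay of CoaBC with a phosphate dye (Biomol Green) read at 650 nm. Target: Coenzyme A biosynthesis protein CoaBC, Mycobacterium tuberculosis (UniProt P9WNZ1). Concentration: 30 µM. Direction is inferred from only a few compounds that gave an IC50; most scored high, so higher reads as stronger inhibition. Most strong results did not repeat in a second test. About 67,000 compounds were tested under these conditions; 0.06% (about 40) showed 50% or more at least once.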

compound,A,B
CC(C)c1nn(C)cc1CNC1CCOc2ccccc21.Cl (centres undefined),12.92,-
[H][C@@]12CCN(C(=O)c3cnc(CC)nc3)C[C@@]([H])(CC1)N2C,12.85,-
O=S(=O)(c1ccc(F)cc1)N1CCN(CCCn2ccnc2)CC1,22,-9.013
CSc1ccccc1CN1C[C@H]2C(=O)N(CC3CC3)C[C@@]2(C(=O)O)C1,-,7.46
CCNC(=O)NC(c1ccc(C)cc1)c1cccc(S(C)(=O)=O)c1 (centres undefined),-16.79,0.7282
CCc1ocnc1C(=O)N1CCC(n2cc(-c3ccsc3)nn2)CC1,29.93,0.615
O=C(CN1CCCS1(=O)=O)Nc1ccc(OC(F)F)cc1,25.11,2.41
CSCc1noc(CN2CCC3(CC2)CC(=O)N(CC=C(C)C)C3)n1,1.577,2.801
CCCC(C(=O)NC1CCN(S(C)(=O)=O)CC1)n1cccc1 (centres undefined),18.03,12.36
Cc1nnc(CN(C)CCCOc2ccc(Cl)cc2)o1,10.37,1.613
Cc1nc(N2CCN(C(=O)c3ccco3)CC2)c2c(n1)c(C)nn2C,23.23,4.85
CC(=O)N1CCCC(c2ccc(Br)cn2)C1 (centres undefined),5.521,-1.115
CC(NC(=O)c1ccoc1)C(=O)N(C)Cc1cccc(C(F)(F)F)c1 (centres undefined),-3.741,0
Cc1cc(C)c(C#N)c(N2CCC(Cc3ccccc3)CC2)n1,-17.29,6.65
OC(CNCCn1cccn1)COc1ccc2ccccc2c1 (centres undefined),56.8,-28.15
c1nc(CCC2CCCN2)cc(N2CCCCCC2)n1 (centres undefined),-,4.167
CC(C)c1nc(-c2ccc(=O)[nH]n2)n(-c2ccc3c(c2)OCO3)n1,35.44,0
Cc1c(C(=O)N2CCC3(CCCNC3=O)C2)sc2nc[nH]c(=O)c12 (centres undefined),14.41,6.884
CCOCc1cccc(NC(=O)C2COCCO2)c1 (centres undefined),-1.11,-0.3745
CN(C)C(=O)C1CSCN1C(=O)CCc1ccco1 (centres undefined),17.14,-0.4854
O=C(O)C(F)(F)F.O=C(O)C(F)(F)F.O=C1CC(c2ccncc2)C2(CCN(Cc3ccc(F)cc3)CC2)N1 (centres undefined),12.69,-
CCCc1nc(N2CC[C@@H](c3ccc4c(c3)OCO4)[C@H](O)C2)no1,11.09,4.069
CCc1ccc(CN2CCC(CNC(=O)c3ccc(C)nc3)C2)nc1 (centres undefined),-90.81,1.809
Cc1cccc(CNC2CCCc3c2cnn3C)c1.Cl (centres undefined),30.64,-
O=C(O)C(F)(F)F.[H][C@@]12CN(C(=O)C3CCOCC3)C[C@]1([H])OCCN2Cc1c(C)noc1C,32.17,-
Cc1cc(CN2CCN(Cc3ccc(C#N)cc3F)CC2)no1,42.5,-0.2237
Cc1ccc(S(=O)(=O)NC(=O)C2(c3ccc(F)cc3)CCC2)c(C)c1,4.844,12.4
Cc1cccc(CN2CCCC2c2cccc(CCC(=O)O)n2)c1 (centres undefined),11.5 & 3.112,-0.2421
O=C(O)C(F)(F)F.O=C(c1ccc[nH]1)N1CCn2cc(CN3CCCC3)nc2C1,-3.456,-
Cl.O=C(c1cccc(F)c1)N1CCCC1c1ncc2c(n1)CCNC2 (centres undefined),12.41 & 11.87,-
Cc1cncc(NCc2ccccc2N2CCOCC2)c1,-2.294,5.976
Cc1ccccc1CN(C)CC(O)COCc1ccccc1Cl (centres undefined),9.82 & 24.77,-3.038
CC(C)N(CC(N)=O)Cc1c(Cl)ccc2cccnc12,2.381,11.11
[H][C@@]12CN(Cc3cccc(OC4CCCC4)c3)C[C@]1(C(=O)O)CNC2=O,-13.15,-
CC(=O)NCC(=O)N(CCN1CCOCC1)Cc1ccco1,2.089,2.051
CCOCC(O)CN1CCN(C(=O)c2ccnc(N(C)C)c2)CC1 (centres undefined),-2.642,12.15
CC(C)c1cc(C(=O)N(C)Cc2cccc3ncccc23)n(C)n1,44.46,6.675
Cc1cc(C2CCCN(CCc3ccc4c(c3)CCO4)C2)n[nH]1 (centres undefined),24.01,5.144
CCOc1ccc(Cl)cc1C1CCCCN1.Cl (centres undefined),18.87 & -4.689,-
O=C(O)C(F)(F)F.O=C(O)C(F)(F)F.c1cc(CN2CCc3ncc(CN4CCCCC4)n3CC2)cs1,12.65,-
C[C@@H]1CN(Cc2ccccc2)CCN1C(=O)NCc1nccs1,36.18,-4.589
Cc1nc(NCC(O)CN2CCCCCC2)c2c(C)nn(C)c2n1 (centres undefined),31.02,5.45
c1ccc2[nH]c(C3CCN(Cc4nnc(C5CC5)o4)CC3)nc2c1,22.76,-3.586
Cn1nccc1CNC(=O)C1CCCCC1,-40.66,2.641
CC(C)NC(=O)N1C[C@H](OCc2cccnc2)[C@H]2COC[C@H]21,-,-0.2469
O=C(O)C(F)(F)F.O=C(O)C(F)(F)F.[H][C@@]12COC[C@]1(COc1cccnc1)CN(C1CCC1)C2,24.17,-
CC(=O)N1CCCC1c1cccc(Oc2ccccc2F)n1 (centres undefined),-10.87 & -0.4577,-0.9685
COCCCNC(=O)N1CCCC(c2nncn2C)C1 (centres undefined),-3.326,6.511
Cl.Cl.Clc1cccc(C[C@@H]2NCCC[C@@H]2Nc2cccc(Cl)c2)c1,98,-
Cc1cccc(CN2CC[C@H]3OCC[C@@]3(C(=O)N3CCCO3)C2)n1,-,2.683
[H][C@@]12NCCCC[C@]1([H])N(C(=O)c1ccc(OC)cc1)C[C@H]2c1ccccc1,24.69,-
O=C(CCn1ccnn1)N1CCCC(n2cncn2)C1 (centres undefined),-6.438,3.151
Cn1ccc2c(C(=O)N3CCC4(CCOC4)C3)cccc21 (centres undefined),-12.18,-1.932
CCc1ccc(S(=O)(=O)N2CC3(COC(C)(C)OC3)C2)s1,2.006 & -6.786,14.16
O=C(c1ccco1)N1CCc2onc(Cn3cccn3)c2C1,27.37,-0.8403
CC(C)c1n[nH]c(C2CN(C(=O)COc3ccc(F)cc3)CCO2)n1 (centres undefined),-27.32,0.1211
CN(C)CCCNC(=O)c1cc(Br)c2c(c1)OCCO2,13.72,-43.75
Cc1ccc(C(=O)NCC2(O)CCOCC2)cc1Br,18.71,0.2132
CCn1c(C)nnc1CN(C)C1CCN(Cc2c(C)noc2C)C1 (centres undefined),14.91,3.863
CC(C)(C)c1ccc(C2(C(=O)NCCCS(C)(=O)=O)CC2)cc1,9.998,-1.364
CC(=O)N1CCC(C(=O)Nc2nc(C3CC3)cs2)CC1,28.38,-4.89
CS(=O)(=O)NCC1CCCCN1C(=O)c1csc(-c2ccsc2)n1 (centres undefined),25.24,1.818
COc1ccc(C2=CCN(C(=O)CN(C)Cc3ccco3)CC2)cc1,30.16,4.724
COc1ccc(Cc2c(O)nc(SC)n(-c3ccccc3)c2=O)cc1,-5.994,5.34
Cc1nc(C)c(CC(=O)N2C[C@H]3CC[C@@H]2CN(C(=O)N(C)C)C3)c(=O)[nH]1,-,-6.608
COc1ccc(OC)c(CN2CCc3nc4ccsc4c(=O)n3CC2)c1.Cl,7.521,-
O=C(O)C(F)(F)F.O=C(O)C(F)(F)F.[H][C@@]12COC[C@@H](CC(=O)NCc3cccnc3)[C@]1([H])CN(C1CCCC1)C2,-6.264,-
CCn1nc(C)c2c1cnn2CCNS(=O)(=O)CC,4.373,4.337
CC(C)Oc1cc(N2CCC3(CC2)[C@H](O)C[C@@H]3O)nc(N)n1,19.47,-10.06
CCCC(=O)N(CCN1CCOCC1)c1nc2c(OC)ccc(C)c2s1,-,13.74
COc1cc(C2C3=C(COC3=O)Nc3[nH]nc(C)c32)cc(Br)c1O (centres undefined),45.92,9.636
O=C(c1cc(C2CC2)on1)N1CCC(Oc2ncccc2Br)CC1,15.98 & -2.03,-0.6342
CCc1[nH]c2ccc(CNC(=O)Cc3c(C)nc(N)nc3C)cc2c1C,7.135,-3.074

The last 9 entries again:

{"compound": "Cc1nc(C)c(CC(=O)N2C[C@H]3CC[C@@H]2CN(C(=O)N(C)C)C3)c(=O)[nH]1", "B": -6.608}
{"compound": "COc1ccc(OC)c(CN2CCc3nc4ccsc4c(=O)n3CC2)c1.Cl", "A": 7.521}
{"compound": "O=C(O)C(F)(F)F.O=C(O)C(F)(F)F.[H][C@@]12COC[C@@H](CC(=O)NCc3cccnc3)[C@]1([H])CN(C1CCCC1)C2", "A": -6.264}
{"compound": "CCn1nc(C)c2c1cnn2CCNS(=O)(=O)CC", "A": 4.373, "B": 4.337}
{"compound": "CC(C)Oc1cc(N2CCC3(CC2)[C@H](O)C[C@@H]3O)nc(N)n1", "A": 19.47, "B": -10.06}
{"compound": "CCCC(=O)N(CCN1CCOCC1)c1nc2c(OC)ccc(C)c2s1", "B": 13.74}
{"compound": "COc1cc(C2C3=C(COC3=O)Nc3[nH]nc(C)c32)cc(Br)c1O", "stereo": "centres undefined", "A": 45.92, "B": 9.636}
{"compound": "O=C(c1cc(C2CC2)on1)N1CCC(Oc2ncccc2Br)CC1", "A": "15.98 & -2.03", "B": -0.6342}
{"compound": "CCc1[nH]c2ccc(CNC(=O)Cc3c(C)nc(N)nc3C)cc2c1C", "A": 7.135, "B": -3.074}